In publication PMC9922281:

Target: T1, dermatopontin (DPT) of the YAP domain mapping (UniProt Q07507)
T1 sequence: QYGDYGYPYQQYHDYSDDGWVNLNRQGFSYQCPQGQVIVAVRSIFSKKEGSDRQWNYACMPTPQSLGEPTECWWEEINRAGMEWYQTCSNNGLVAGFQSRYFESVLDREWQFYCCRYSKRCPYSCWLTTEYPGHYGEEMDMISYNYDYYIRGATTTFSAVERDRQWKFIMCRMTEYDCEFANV
Assay: co-IP; GFP-tagged YAP and YAP domain-deletion mutants with DPT in 293T cells; western blot

binding: binds
Substance: GFP-tagged YAP (from UniProt P46937-2)

Results are given in words; binding and its absence hold for the method and conditions named. Binding seen in cells or lysates may run through a third protein. Binding can be weak; no strength is given.
